Laboratory results taken from patent publication US20220249475A1, “COMPOUNDS AND METHOD FOR TREATING CYTOKINE RELEASE SYNDROME” (Rigel Pharmaceuticals, Inc., priority 2019, published 2022).

System: Dendritic cells + T cells + CD3/CD28 beads
Test: CRS assay: dendritic cells + T cells + CD3/CD28 beads, IL6 ELISA
Assay type: cell-based
Conditions: human PBMC-derived dendritic cells, 1 hour compound pre-incubation, overnight with T cells and CD3/CD28 beads; IL-6 primarily produced by the dendritic cells
Text: Human PBMC cells (PPA Research Group, Cat No. 15-00021); RPMI media 10% FBS; GMCSF (Peprotech, Cat No. 300-03) and IL4 (Peprotech Cat No. 200-04); White clear bottom 96 well plates (Fisher, Cat No. 07-200-587, Corning #3903); Human IL-2 DuoSet ELISA (R&D Systems, Cat No. DY202); Human IL-6 DuoSet ELISA (R&D Systems, Cat No. DY206); Cell Titer Glo reagent (Promega, Cat No. G7573); Dynabeads Human T-Activator CD3/CD28 (Fisher, Cat No. 111.61D); Anti-human CD3 (BD Biosciences, Cat No. 555336); CD28, Clone CD28.2 (Beckman Coulter Inc. Cat No. IM1376); Recombinant Human IL-2 Protein (R&D Systems, Cat No. 202-IL-500).
Human peripheral blood mononuclear cells (PBMC) (400 million) obtained from the vendor were transferred into three T-175 flasks containing 16 ml RPMI media (10% fetal bovine serum (FBS)) and incubated for 2 hours at 37° C. After 2 hours, floating PBL was removed and the cell was rinsed twice with 10 ml of media. The PBL and media was saved for T cell expansion. 16 ml of fresh RPMI media (10% FBS) containing Granulocyte Macrophage Colony—Stimulating Factor (GMCSF) (100 ng/ml) and IL4 (20 ng/ml) was added and the flask was kept in a 37° C. incubator. […]
After incubation, 80 μl of the supernatant was harvested from each well for IL6 ELISA and 80 μl of the supernatant for IL2 ELISA. […] The plate was read for luminescence intensity to determine the compound cytotoxicity.

EC50: 108 nM
SMILES: C[C@@H]1CCN(C(=O)CC#N)C[C@@H]1N(C)c1ncnc2[nH]ccc12 [Tofacitinib, reference compound]
